# Values from PubChem BioAssay AID1259254 (NCATS, 2017).
# Assay: 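Genome-wide screen for genes that prevent DNA re-replication in cancer cells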 (primary screen)
# System: human HCT116 colorectal cancer cells
# Knock-down reagent: single siRNA against human genes
# Duration: 3 days
# Read-out: 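Nuclei stained with Hoechst and imaged; cell-cycle phase assigned by DNA content; G2 share scaled per plate, non-targeting siRNA 0%, GMNN siRNA 100%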
# Reading the numbers: G2 robust z-score and G2 cells, % of GMNN control: higher = more G2 cells, more excess DNA replication; raw share of cells in G2: higher = larger share of cells with G2 DNA content
# Rule for the call: 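Active siRNAs have a G2 robust z of 5 or more median absolute deviations over the median, which in these data means about 38% or higher of GMNN control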
# The deposit covers about 59,000 reagents; shown is a part drawn at random. Of all reagents, about 1,550 (2.6%) are marked active. 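G2 share is only a proxy for re-replication; each gene was hit by three separate siRNAs, and active genes were retested.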 Raw values vary from plate to plate and are shown uncorrected. Entries without a mark were called inactive. Reagents against one gene are numbered here. No sequences are given here. The record does not give: the amount of reagent.
gene,siRNA no.,G2 robust z-score,"G2 cells, % of GMNN control",raw share of cells in G2 (%)
RGS8,1,-0.252,1.2,6.23
RGS8,2,-0.599,-1.25,4.43
RGS8,3,-0.805,-2.7,3.46
SP100,1,-1.34,-6.48,1.81
SP100,2,-1.77,-9.48,1.3
SP100,3,0.163,4.11,7.07
SERGEF,1,0.946,9.63,10.5
SERGEF,2,0.0455,3.29,5.28
SERGEF,3,0.779,8.45,6.76
PLSCR5,1,-0.941,-3.65,2.52
PLSCR5,2,-0.503,-0.572,3.16
PLSCR5,3,0.0153,3.08,5.95
KCNS1,1,-1.17,-5.29,2.26
KCNS1,2,2.01,17.1,11.3
KCNS1,3,0.0072,3.02,6.83
PDE3B,1,-0.576,-1.08,3.17
PDE3B,2,-0.752,-2.32,3.6
PDE3B,3,-0.95,-3.72,3.59
MEX3D,1,-1.06,-4.5,3.2
MEX3D,2,0.763,8.33,9.51
MEX3D,3,2.78,22.5,12.5
TGM7,1,0.0407,3.25,5.71
TGM7,2,-0.605,-1.29,4.41
TGM7,3,-0.129,2.06,6.63
SOX14,1,-0.143,1.96,5.41
SOX14,2,3.64,28.6,15.3
SOX14,3,1.43,13,10.4
DYNLT5,1,-1.17,-5.27,1.72
DYNLT5,2,1.68,14.8,7.91
DYNLT5,3,-0.377,0.313,2.86
ABCA12,1,-0.281,0.989,4.52
ABCA12,2,-0.194,1.6,4.51
ABCA12,3,0.17,4.16,8.05
MCM3,1,-0.674,-1.78,2.61
MCM3,2,-1.16,-5.2,3.41
MCM3,3,2.42,20,13.1
SMPDL3A,1,2.19,18.4,13.7
SMPDL3A,2,-0.244,1.25,6.24
SMPDL3A,3,1.93,16.6,9.2
TEKT1,1,-0.0827,2.39,6.42
TEKT1,2,-0.713,-2.05,3.45
TEKT1,3,-1.18,-5.31,2.82
OSTC,1,-0.0543,2.59,5.37
OSTC,2,-0.656,-1.65,3.67
OSTC,3,-0.116,2.15,3.71
CATSPERT,1,-0.476,-0.38,2.94
CATSPERT,2,-0.269,1.07,4.19
CATSPERT,3,-0.537,-0.811,2.66
NME2,1,-0.703,-1.98,4.74
NME2,2,-0.697,-1.94,4.97
NME2,3,-0.485,-0.443,3.87
MT1G,1,-0.651,-1.61,3.59
MT1G,2,-0.602,-1.27,2.9
MT1G,3,-0.291,0.922,5.37
IL1RAPL1,1,-0.651,-1.61,4.35
IL1RAPL1,2,0.314,5.18,6.27
IL1RAPL1,3,0.117,3.79,4.59
KANSL2,1,0.616,7.3,6.22
KANSL2,2,0.55,6.84,7.15
KANSL2,3,-0.216,1.45,3.67
FAM181B,1,-0.209,1.5,4.12
FAM181B,2,-0.57,-1.04,2.77
FAM181B,3,0.794,8.55,5.92
HPCAL4,1,-0.307,0.804,3.89
HPCAL4,2,0.303,5.1,4.59
HPCAL4,3,-1.07,-4.58,3.84
ERICH1,1,0.965,9.76,7.1
ERICH1,2,2.59,21.2,10.1
ERICH1,3,-0.574,-1.07,2.42

Limited to “G2 cells, % of GMNN control” (7 entries from above):
PDE3B #3 = -3.72
MEX3D #1 = -4.5
MEX3D #2 = 8.33
MEX3D #3 = 22.5
TGM7 #1 = 3.25
TGM7 #2 = -1.29
TGM7 #3 = 2.06
